Measured values from PubChem BioAssay AID330 (DTP/NCI, 2004).
The list does not hold the whole screen: it gathers tests that were run many times, whatever their T/C, doses with no T/C, and many T/C values between a quarter and a half above the control. Further doses and runs are listed elsewhere. T/C is the treated group as % of the vehicle group. Some entries give survivors of the animals treated and no T/C: the source holds a T/C of zero for them, seemingly a mark for toxic or unscored doses. Some survivor counts are full or nearly so, which does not show that the dose was tolerated: the source hardly ever lists a survival T/C far under the control, and the zero likely stands for such cases as well. Survivors were counted at the toxicity check, usually on the fifth day, unless a day is given; later deaths do not show. Schedule codes are those of the source, read here as Q, the interval in days (D) or hours (H), X, the number of doses. Some entries were tested several times; the results are listed from low to high. Counts like (3×) give the number of equal values in this list. Some molecules as drawn cover several salts, stereoisomers or complexes of the source; a dose is that of the sample tested. For survival time, this PubChem deposit counts one and a half times the control or more as active, and values a quarter to a half above the control carry no call in these data; other NCI protocols may use other cut-offs.

System: P388 leukemia ip, CD2F1 mice, survival T/C
Assay: NCI In Vivo Anticancer Drug Screen. Data for tumor model P388 Leukemia (intraperitoneal) in CD2F1 (CDF1) mice
Settings: T/C endpoint: median survival time, higher T/C = longer survival
[1] = dose: 50.0 mg/kg/injection, schedule: Q01DX009 (ip), vehicle: saline
[2] = dose: 100.0 mg/kg/injection, schedule: Q01DX009 (ip), vehicle: saline
[3] = dose: 200.0 mg/kg/injection, schedule: Q01DX009 (ip), vehicle: saline
[4] = dose: 400.0 mg/kg/injection, schedule: Q01DX001 (ip), vehicle: Klucel (hydroxypropylcellulose) (HPC)
[5] = dose: 200.0 mg/kg/injection, schedule: Q01DX009 (ip), vehicle: saline with Tween-80
[6] = dose: 12.5 mg/kg/injection, schedule: Q01DX009 (ip), vehicle: saline
[7] = dose: 25.0 mg/kg/injection, schedule: Q01DX009 (ip), vehicle: saline

CNc1nc(N(C)C)nc(N(C)C)n1
survivor count (dose: 25.0 mg/kg/injection, schedule: Q01DX009 (ip), vehicle: water): 6 of 6 | survivor count (dose: 32.0 mg/kg/injection, schedule: Q01DX005 (iv), vehicle: water): 3 of 10 | T/C (dose: 50.0 mg/kg/injection, schedule: Q01DX009 (ip), vehicle: water): 125 % of control | survivor count (dose: 64.0 mg/kg/injection, schedule: Q01DX005 (iv), vehicle: water): 3 of 10 | survivor count (dose: 64.0 mg/kg/injection, schedule: Q03HX008 (ip), vehicle: water): 10 of 10 | survivor count (dose: 64.0 mg/kg/injection, schedule: Q03HX016 (ip), vehicle: water): 10 of 10 | survivor count (dose: 64.0 mg/kg/injection, schedule: Q03HX024 (ip), vehicle: water): 10 of 10 | T/C (dose: 100.0 mg/kg/injection, schedule: Q01DX009 (ip), vehicle: water): 126, 127, 138 % of control | survivor count (dose: 128.0 mg/kg/injection, schedule: Q01DX005 (iv), vehicle: water): 2 of 10 | survivor count (dose: 128.0 mg/kg/injection, schedule: Q01DX009 (ip), vehicle: water): 10 of 10 | survivor count (dose: 128.0 mg/kg/injection, schedule: Q03HX008 (ip), vehicle: water): 9 of 10 | survivor count (dose: 128.0 mg/kg/injection, schedule: Q03HX016 (ip), vehicle: water): 6 of 10 | survivor count (dose: 128.0 mg/kg/injection, schedule: Q03HX024 (ip), vehicle: water): 3 of 10 | survivor count (dose: 150.0 mg/kg/injection, schedule: Q01DX009 (ip), vehicle: water): 6 of 6 | survivor count (dose: 200.0 mg/kg/injection, schedule: Q01DX009 (ip), vehicle: water): 4 of 6 and 5 of 6 | survivor count (dose: 256.0 mg/kg/injection, schedule: Q01DX001 (ip), vehicle: water): 9 of 10 | survivor count (dose: 256.0 mg/kg/injection, schedule: Q01DX005 (ip), vehicle: water): 6 of 10 | survivor count (dose: 256.0 mg/kg/injection, schedule: Q01DX005 (iv), vehicle: water): 2 of 10 | survivor count (dose: 256.0 mg/kg/injection, schedule: Q01DX009 (ip), vehicle: water): 4 of 10 | survivor count (dose: 256.0 mg/kg/injection, schedule: Q01DX009 (oral), vehicle: water): 10 of 10 | survivor count (dose: 256.0 mg/kg/injection, schedule: Q01DX009 (sc), vehicle: water): 5 of 10 | survivor count (dose: 256.0 mg/kg/injection, schedule: Q04DX003 (ip), vehicle: water): 10 of 10 | survivor count (dose: 256.0 mg/kg/injection, schedule: Q08DX002 (ip), vehicle: water): 10 of 10 | survivor count (dose: 512.0 mg/kg/injection, schedule: Q01DX001 (ip), vehicle: water): 1 of 10 | survivor count (dose: 512.0 mg/kg/injection, schedule: Q01DX001 (oral), vehicle: water): 9 of 10 | survivor count (dose: 512.0 mg/kg/injection, schedule: Q04DX003 (ip), vehicle: water): 3 of 10 | survivor count (dose: 512.0 mg/kg/injection, schedule: Q08DX002 (ip), vehicle: water): 1 of 10

CC(C)(C)c1cc(C(O)(C(F)(F)F)C(F)(F)F)c(S)c(C(O)(C(F)(F)F)C(F)(F)F)c1
survivor count (dose: 50.0 mg/kg/injection, schedule: Q01DX005 (ip), vehicle: suspension in saline): 2 of 6 | survivor count (dose: 100.0 mg/kg/injection, schedule: Q01DX005 (ip), vehicle: suspension in saline): 0 of 6 | survivor count (dose: 200.0 mg/kg/injection, schedule: Q01DX005 (ip), vehicle: suspension in saline): 0 of 6

CCOC(=N)N1[C@H](C)[C@H]1C
survivor count (dose: 100.0 mg/kg/injection, schedule: Q04DX002 (ip), vehicle: saline): 0 of 6 | survivor count (dose: 200.0 mg/kg/injection, schedule: Q04DX002 (ip), vehicle: saline): 0 of 6 | survivor count (dose: 400.0 mg/kg/injection, schedule: Q04DX002 (ip), vehicle: saline): 0 of 6

CCCCCCCCCCCCCCCCNCCCS(=O)(=O)O
survivor count (dose: 25.0 mg/kg/injection, schedule: Q01DX009 (ip), vehicle: saline with Tween-80): 6 of 6 | T/C [1]: 126 % of control | survivor count [2]: 5 of 6 | survivor count [3]: 0 of 6

CC(C)NC(=O)OCc1c(COC(=O)NC(C)C)c2n(c1-c1ccc(Cl)c(Cl)c1)CCS2(=O)=O
survivor count (dose: 200.0 mg/kg/injection, schedule: Q01DX005 (ip), vehicle: saline with Tween-80): 6 of 6 | survivor count (dose: 400.0 mg/kg/injection, schedule: Q01DX005 (ip), vehicle: saline with Tween-80): 6 of 6

c1ccc2c(c1)CCNC2C1NCCc2ccccc21 (stereo not given)
survivor count (dose: 200.0 mg/kg/injection, schedule: Q01DX009 (ip), vehicle: Klucel (hydroxypropylcellulose) (HPC)): 0 of 6 | survivor count [4]: 0 of 6 | survivor count (dose: 400.0 mg/kg/injection, schedule: Q01DX009 (ip), vehicle: Klucel (hydroxypropylcellulose) (HPC)): 0 of 6

Cc1cccc(/C=C/C(=O)C(C)CN(C)C)c1 (stereo not given)
survivor count (dose: 120.0 mg/kg/injection, schedule: Q01DX005 (ip), vehicle: saline): 2 of 6 | survivor count (dose: 240.0 mg/kg/injection, schedule: Q01DX005 (ip), vehicle: saline): 0 of 6

C1=CCC23COCC2(C1)CSC3 (stereo not given)
survivor count [1]: 3 of 6 | survivor count [2]: 5 of 6 | survivor count [3]: 0 of 6

CCOC(=O)c1cc(-c2ccccn2)c(=O)n2ccccc12
survivor count (dose: 100.0 mg/kg/injection, schedule: Q01DX009 (ip), vehicle: saline with Tween-80): 6 of 6 | survivor count [5]: 6 of 6

CCOc1ccn(C2C=CC(=O)O2)c(=O)n1 (stereo not given)
survivor count (dose: 50.0 mg/kg/injection, schedule: Q01DX005 (ip), vehicle: saline): 2 of 6 | survivor count (dose: 100.0 mg/kg/injection, schedule: Q01DX005 (ip), vehicle: saline): 3 of 6 | survivor count (dose: 200.0 mg/kg/injection, schedule: Q01DX005 (ip), vehicle: saline): 0 of 6

COc1ccc(C2CC(C)(OC)Oc3cc4c(cc32)OCO4)cc1 (stereo not given)
survivor count [4]: 6 of 6

CN(C)C(=S)SCc1ccc(C(=O)O)nc1
survivor count [5]: 3 of 6

COc1cc([C@@H]2c3cc4c(cc3[C@H](O)[C@H]3COC(=O)[C@H]23)OCO4)cc(OC)c1OC
T/C (dose: 2.0 mg/kg/injection, schedule: Q01DX005 (ip), vehicle: Klucel (hydroxypropylcellulose) (HPC)): 130 % of control | T/C (dose: 4.0 mg/kg/injection, schedule: Q01DX005 (ip), vehicle: Klucel (hydroxypropylcellulose) (HPC)): 128 % of control | T/C (dose: 4.0 mg/kg/injection, schedule: Q01DX005 (ip), vehicle: saline with Tween-80): 136 % of control | survivor count (dose: 8.0 mg/kg/injection, schedule: Q01DX005 (ip), vehicle: saline with Tween-80): 4 of 6 | survivor count (dose: 16.0 mg/kg/injection, schedule: Q01DX005 (ip), vehicle: saline with Tween-80): 4 of 6

Cc1cc(OCCCC[N+](C)(C)Cc2ccc(Br)o2)c(C(C)C)cc1Cl
survivor count [6]: 3 of 6 | survivor count [7]: 0 of 6

CCCCCCCCCCCCCCCC[N+](C)(CCO)Cc1cnc[nH]1 (stereo not given)
T/C (dose: 6.25 mg/kg/injection, schedule: Q01DX009 (ip), vehicle: saline): 139 % of control | T/C [6]: 129 and 135 % of control | survivor count [7]: 5 of 6 and 6 of 6 | survivor count [1]: 1 of 6 (2×) | survivor count [2]: 0 of 6 | survivor count [3]: 0 of 6

O=[N+]([O-])/C=C/c1cc2c(cc1Br)OCO2
survivor count (dose: 400.0 mg/kg/injection, schedule: Q04DX003 (ip), vehicle: saline with Tween-80): 3 of 6

COC(=O)C1(F)C(=O)NC(=O)NC1OC (stereo not given)
T/C (dose: 120.0 mg/kg/injection, schedule: Q04DX002 (ip), vehicle: Klucel (hydroxypropylcellulose) (HPC)): 128 and 137 % of control | T/C (dose: 240.0 mg/kg/injection, schedule: Q04DX002 (ip), vehicle: Klucel (hydroxypropylcellulose) (HPC)): 137 % of control
